This note sets out measurements from PMC11124525, “Pharmacokinetic–Pharmacodynamic Correlation Analysis of Rhodiola crenulata in Rats with Myocardial Ischemia” (Pharmaceuticals, 2024).

Structures are written as SMILES. No dose or concentration is given here for some results.

One series concerns SOD. The experiment in a line: PK-PD sigmoid-Emax model, PD index SOD in MDG rats. It is filed as in vivo, SD rats. The following applies: shape factor.
Another series concerns AST. Description: PK-PD sigmoid-Emax model, PD index AST in MDG rats. In kind it is in vivo, SD rats. The following applies: shape factor.

As for `O=C(O)c1cc(O)c(O)c(O)c1` [Gallic Acid, gallic acid], the γ with SOD was 0.01; with AST, 0.208.

Consider `O=c1c(O)c(-c2ccc(O)cc2)oc2cc(O)cc(O)c12` [Kaempferol, kaempferol], for which the γ in the series with SOD stood at 0.995; in the series with AST, 0.451.

`OC[C@H]1O[C@@H](OCCc2ccc(O)cc2)[C@H](O)[C@@H](O)[C@@H]1O` [Salidroside, salidroside]: the γ in the series on SOD was determined as 0; with AST, 0.233.

As for `OCCc1ccc(O)cc1` [Tyrosol, tyrosol], the results for the γ in the series with SOD and in the series with AST were 0.078 and 0.38, respectively.
